Record: PubChem BioAssay AID1259425 (University of Nebraska Medical Center, 2018)
Assay: 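Find knockdowns that reproduce the gene expression pattern seen when KSR1 is lost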 (primary screen). Cells: HCT116 human colon cancer cells. Reagent: siRNA pool against human genes, 50 nM siRNA. Measurement: 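After 50 nM siRNA pool, branched-DNA assay measures six marker transcripts per well, minus blank, normalised to the geometric mean of two housekeeping transcripts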. Reading the numbers: BNIP3L mRNA: higher = more BNIP3L transcript after knockdown; NDRG1 mRNA: higher = more NDRG1 transcript after knockdown.
Shown is a random part of about 14,000 deposited reagents. Reagents against one gene are numbered here. Further read-outs or replicates are left out here. Not stated in the record: the time to read-out.

| Target gene | reagent no. | BNIP3L mRNA, set 1 | NDRG1 mRNA, set 1 |
| --- | --- | --- | --- |
| ELAVL2 (GeneID 1993) | 1 | 0.0845 | 0.156 |
| PLPP4 (GeneID 196051) | 1 | 0.181 | 0.546 |
| CASTOR3P (GeneID 352954) | 1 | 0.102 | 0.123 |
| CXCL9 (GeneID 4283) | 1 | 0.112 | 0.358 |
| ADSS2 (GeneID 159) | 1 | 0.112 | 0.192 |
| NPPA (GeneID 4878) | 1 | 0.082 | 0.182 |
| ZSCAN5A (GeneID 79149) | 1 | 0.192 | 0.342 |
| HDAC10 (GeneID 83933) | 1 | 0.103 | 0.287 |
| COPS2 (GeneID 9318) | 1 | 0.0715 | 0.205 |
| SLC22A7 (GeneID 10864) | 1 | 0.0676 | 0.501 |
| METRN (GeneID 79006) | 1 | 0.142 | 0.17 |
| MMUT (GeneID 4594) | 1 | 0.149 | 0.302 |
| RPS4Y1 (GeneID 6192) | 1 | 0.0717 | 0.265 |
| KIDINS220 (GeneID 57498) | 1 | 0.136 | 0.106 |
| PRADC1 (GeneID 84279) | 1 | 0.134 | 0.19 |
| L3MBTL3 (GeneID 84456) | 1 | 0.118 | 0.154 |
| KIAA1217 (GeneID 56243) | 1 | 0.101 | 0.134 |
| LOXL3 (GeneID 84695) | 1 | 0.16 | 0.128 |
| EEF2 (GeneID 1938) | 1 | 0.0895 | 0.114 |
| NMUR2 (GeneID 56923) | 1 | 0.197 | 0.204 |

Not a retest: an excerpt of the list.
| Target gene | reagent no. | BNIP3L mRNA, set 1 | NDRG1 mRNA, set 1 |
| --- | --- | --- | --- |
| RPS4Y1 (GeneID 6192) | 1 | 0.0717 | 0.265 |
| KIDINS220 (GeneID 57498) | 1 | 0.136 | 0.106 |
| PRADC1 (GeneID 84279) | 1 | 0.134 | 0.19 |
| L3MBTL3 (GeneID 84456) | 1 | 0.118 | 0.154 |
| KIAA1217 (GeneID 56243) | 1 | 0.101 | 0.134 |
| LOXL3 (GeneID 84695) | 1 | 0.16 | 0.128 |
| EEF2 (GeneID 1938) | 1 | 0.0895 | 0.114 |

Further results follow.
| Target gene | reagent no. | BNIP3L mRNA, set 1 | NDRG1 mRNA, set 1 |
| --- | --- | --- | --- |
| BCKDK (GeneID 10295) | 1 | 0.104 | 0.842 |
| ALPK2 (GeneID 115701) | 1 | 0.0962 | 0.217 |
| CUTC (GeneID 51076) | 1 | 0.106 | 0.185 |
| CSHL1 (GeneID 1444) | 1 | 0.134 | 0.301 |
| ZFP64 (GeneID 55734) | 1 | 0.0911 | 0.597 |
| SIRT2 (GeneID 22933) | 1 | 0.103 | 0.346 |
| U2AF1 (GeneID 7307) | 1 | 0.115 | 0.667 |
| KATNA1 (GeneID 11104) | 1 | 0.11 | 0.129 |
| NDRG2 (GeneID 57447) | 1 | 0.0676 | 0.0644 |
| GCH1 (GeneID 2643) | 1 | 0.152 | 0.161 |
| VPS9D1 (GeneID 9605) | 1 | 0.289 | 1.1 |
| KIF21B (GeneID 23046) | 1 | 0.0754 | 0.0869 |
| FAF1 (GeneID 11124) | 1 | 0.06 | 0.204 |
| SRSF3 (GeneID 6428) | 1 | 0.232 | 0.193 |
| NEK10 (GeneID 152110) | 1 | 0.129 | 0.219 |
| CEP350 (GeneID 9857) | 1 | 0.0496 | 0.159 |
| UVSSA (GeneID 57654) | 1 | 0.0887 | 0.316 |
| LAMA1 (GeneID 284217) | 1 | 0.124 | 0.202 |
| TUBB7P (GeneID 56604) | 1 | 0.11 | 0.296 |
| PRKDC (GeneID 5591) | 1 | 0.0913 | 1.21 |
| UNKL (GeneID 64718) | 1 | 0.101 | 0.0693 |
| UNKL (GeneID 64718) | 2 | 0.0985 | 0.311 |
| THOC2 (GeneID 57187) | 1 | 0.55 | 1.4 |
| ASNSD1 (GeneID 54529) | 1 | 0.0983 | 0.206 |
| KRTAP9-2 (GeneID 83899) | 1 | 0.153 | 0.386 |
| STRIP1 (GeneID 85369) | 1 | 0.158 | 0.495 |
| PSMC6 (GeneID 5706) | 1 | 0.181 | 1.53 |
| KATNIP (GeneID 23247) | 1 | 0.149 | 0.403 |
| SLIT3 (GeneID 6586) | 1 | 0.0382 | 0.122 |
| PPTC7 (GeneID 160760) | 1 | 0.092 | 0.444 |
